According to publication PMC10779018:

Target: T1, Methyltransferase-like 21C (METTL21C), FLAG-tagged (chicken) (UniProt E1BSL9)
T1 sequence: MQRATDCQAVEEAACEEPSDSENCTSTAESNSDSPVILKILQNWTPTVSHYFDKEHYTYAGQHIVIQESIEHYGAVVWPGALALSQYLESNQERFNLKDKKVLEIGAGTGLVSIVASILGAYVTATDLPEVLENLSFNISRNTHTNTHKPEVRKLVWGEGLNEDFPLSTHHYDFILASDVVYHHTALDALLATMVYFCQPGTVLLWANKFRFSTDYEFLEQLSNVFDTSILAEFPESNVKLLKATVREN
Assay: co-IP; HEK293T cells co-transfected with pCD513B-FLAG-METTL21C and pCD513B-HA-PHAX or pCD513B-HA-PHAX (K381); precipitated by HA and by FLAG, detected by blot

binding: binds
Substance: Phosphorylated adapter RNA export protein (PHAX), HA-tagged

These are yes or no findings as the source states them, for the method shown. In cells and extracts the contact can be indirect. Binding calls can cover weak binding; strength is not graded here. Tags and fused reporters may be left off the sequences shown.
